Assay: Caco-2 bidirectional permeability assay
Details: human, Caco-2, pH 7.4, Papp (Basal to Apical), Caco-2, 10 µM, 37 °C

- Papp at 2 h, 10 µM: 3 ± 0.2 ×10⁻⁶ cm/s
Structure (SMILES): CC(C)NCC(O)COc1ccc(CC(N)=O)cc1 (stereo not shown) [Atenolol, atenolol]

Source: paper PMC9077134 (OncoTargets and therapy, 2022)
